## Primary screen of a compound library

The values are deposited in ChEMBL (CHEMBL3988442, “University of Dundee, Small-Polar-MMV Screening Library” (2021)).

Mtb growth Cornell: 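Whole-cell assay for inhibitors of Mycobacterium tuberculosis growth, labelled Cornell in the record; the read-out is not stated. The concentration is filed as 10 mM, unlikely as a test dose, so the dose is not known. The record gives no direction; compounds strong in two other growth screens of this library score well above the rest, so higher reads as stronger inhibition. Of about 53,000 compounds tested this way, about 900 (1.7%) reached 50% or more in at least one test.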
Mtb heat-shock: 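Assay on Mycobacterium tuberculosis, filed only as a heat shock assay from Cornell; the read-out is not stated. The concentration is filed as 10 mM, unlikely as a test dose, so the dose is not known. The record gives no direction; compounds that gave an IC50 in retests scored well above the rest, so higher reads as stronger inhibition. About 69,000 compounds were tested under these conditions; 1.4% (about 930) showed 50% or more at least once.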

Values are the deposited “Percent Effect”, in %.
How 0% and 100% were set is not recorded. Most values in the screen are low, and negative values occur.
This is an unselected part of the compounds tested.

* Cn1cc(C[C@H]2[C@H](O)CCN2C(=O)C2CCCC2)cn1 : Mtb growth Cornell: -20.53%; Mtb heat-shock: 5.434%
* Cc1cc(C)n(Cc2cc(C(=O)N3CCCC3c3ccccn3)n[nH]2)n1 (configuration not stated) : Mtb growth Cornell: 24.3%; Mtb heat-shock: 0.3209%
* COC(=O)C(c1ccccc1)N(C)C(=O)c1ccnc(C)n1 (configuration not stated) : Mtb growth Cornell: -18.82%; Mtb heat-shock: -4.285%
* Cc1cc(C)c(CNC(=O)NCCNc2cnccn2)c(=O)[nH]1 : Mtb growth Cornell: 18.59%; Mtb heat-shock: -7.276%
* CN(C)C(=O)N1CC(=O)NCC12CCN(C(=O)c1ccco1)C2 (configuration not stated) : Mtb heat-shock: -3.39%
* Cc1cn2nc(N3CCCN(Cc4noc(C)n4)CC3)sc2n1 : Mtb heat-shock: -6.798%
* CN(Cc1cnn(C)c1)C(=O)CN1CCCC1Cn1cncn1 (configuration not stated) : Mtb heat-shock: -14.92%
* O=C1CN(Cc2ccc3ccccc3n2)CCN1C1CCCC1 : Mtb growth Cornell: 48.05%; Mtb heat-shock: 18.07%
* Cc1nc(CN2CCN(S(=O)(=O)N3CCCCC3)CC2)oc1C : Mtb growth Cornell: -11.55%; Mtb heat-shock: -24.01%
* O=C(CCn1cncn1)NCC1CCCC1 : Mtb growth Cornell: 19.78%; Mtb heat-shock: -0.9656%
* COc1ccc(CNC2CCN(c3ccccc3)C2)cc1O (configuration not stated) : Mtb growth Cornell: -19.24%; Mtb heat-shock: -7.013%
* O=C(O)C(F)(F)F.O=C(O)C(F)(F)F.[H][C@@]12CCN(Cc3ccncc3)C[C@]1([H])O[C@@H](C(=O)NCC1CCOCC1)C2 : Mtb growth Cornell: 17.2%; Mtb heat-shock: -3.173%
* Cn1nnc2c1CCN(Cc1ccoc1)C2COCc1ccccc1.O=C(O)C(F)(F)F (configuration not stated) : Mtb growth Cornell: -6.847%; Mtb heat-shock: -25.12%
* CN(Cc1cc(Br)c2c(c1)OCO2)Cc1cscn1 : Mtb growth Cornell: 27.79%; Mtb heat-shock: 6.493%
* COc1cc(CNc2cnn(C(C)(C)C)c(=O)c2Cl)ccn1 : Mtb growth Cornell: 7.469%; Mtb heat-shock: 7.715%
* Cc1ccc(N2CCCN(C(=O)CCc3ccsc3)CC2)nn1 : Mtb growth Cornell: 0.377%; Mtb heat-shock: -29.23%
* O=C(c1cccc2ccnn12)N1CCCC1Cn1cccn1 (configuration not stated) : Mtb growth Cornell: 2.312%; Mtb heat-shock: -20.81%
* [H][C@]12CC[C@]([H])(CN(Cc3ccncc3)C1)N(C(=O)CCn1cncn1)C2 : Mtb heat-shock: 13.01%
* O=C(Nc1ccc(I)cc1C(=O)NCCN1CCOCC1)c1ccco1 : Mtb growth Cornell: 5.444%; Mtb heat-shock: 7.421%
* [H][C@]12CC[C@@]3(N=C(C)N(CC(C)C)C3=O)[C@@]1([H])CN(S(=O)(=O)CC(C)C)C2 : Mtb growth Cornell: -22.08%; Mtb heat-shock: 5.095%
* O=C(NC1CCc2cc(Cl)ccc21)C1CCN(C(=O)C2CC2)CC1 (configuration not stated) : Mtb growth Cornell: -2.234%; Mtb heat-shock: 4.334%
* O=C(O)C(F)(F)F.[H][C@]12CCCN(Cc3ccc(C)o3)[C@@]1([H])CN(C(=O)c1ccco1)C2 : Mtb heat-shock: 10.46%
* CC(NC(=O)Cc1ccccc1F)(C(N)=O)c1cccc(Cl)c1 (configuration not stated) : Mtb growth Cornell: 11.7%; Mtb heat-shock: 16.26%
* O=C1NC2(CCN(C(=O)CN3CCOCC3)CC2)Nc2ccc(Cl)cc21 : Mtb growth Cornell: -38.26%; Mtb heat-shock: -2.524%
* [H][C@]12CN(C(=O)c3ncoc3C)CC[C@@]1(O)CCN(C(=O)N1CCCC1)C2 : Mtb heat-shock: 4.192%
* CC(=O)C1(c2ccccc2)CCN(C(=O)c2ccc3nnnn3c2)CC1 : Mtb growth Cornell: -0.329%; Mtb heat-shock: 2.653%
* Cn1ccc(C(=O)N2CCCC2c2cc(CO)[nH]n2)n1 (configuration not stated) : Mtb growth Cornell: -19.31%; Mtb heat-shock: -4.866%
* CN(c1ncc(S(N)(=O)=O)s1)C1CCC1 : Mtb growth Cornell: -15.52%; Mtb heat-shock: 1.537%
* Cc1occc1C(=O)N1CCn2c(COCC3CC3)cnc2C1C (configuration not stated) : Mtb growth Cornell: 19.03%; Mtb heat-shock: -19.63%